Reference: the supplement of paper PMC12889115
The list shows a part of the results. Values are raw readings; no control value is given beside them.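 In the initial screen, polymyxin B was used at a concentration that permeabilizes Salmonella's outer membrane but not its inner membrane. Maximum growth was set by DMSO wells with or without polymyxin B. Since plates varied, data were ranked per plate, and compounds giving the lowest OD600 advanced as hits.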

System: Salmonella enterica serovar Typhimurium SL1344
Assay: bacterial growth OD600 after 18 h with compound and polymyxin B; higher = more bacterial growth (less inhibition)
Settings: 50 µM, Mueller-Hinton broth

With Cc1oc(-c2cccs2)nc1CN1CCC(N2CCC(C(=O)NC(C)C)CC2)CC1 the “bacterial growth OD600” value (polymyxin B 1 µg/mL) was 1.01.
In the case of CCn1nc(C)c(CN2CCOc3ccc(CN4CCC(OCc5ccccc5)CC4)cc3C2)c1C, the “bacterial growth OD600” value (polymyxin B 0.75 µg/mL) is reported as 0.905.
In the case of O=C(Cn1ccnc1)N1CCCC(CCc2c(F)cccc2F)C1 (stereo unspecified), the “bacterial growth OD600” value (polymyxin B 0.75 µg/mL) is reported as 0.848.
In the case of COc1ccc(CCN2CC(C(=O)NC3c4ccccc4-c4ccccc43)CCC2=O)cc1 (stereo unspecified), the “bacterial growth OD600” value (polymyxin B 1 µg/mL) is reported as 0.724.
CC(C)CN1CCC(C2CCN(C(=O)CCC3=NNC(=O)CC3)C2)CC1 (stereo unspecified) was tested, and the “bacterial growth OD600” value (polymyxin B 0.75 µg/mL) was 0.881.
For CC(=O)c1[nH]c(C)c(C(=O)N2CCC(CCC(=O)NC3CC3)CC2)c1C, the “bacterial growth OD600” value (polymyxin B 1 µg/mL) was 0.865.
COc1cc(OC)nc(N2C[C@H]3OC(=O)N(CCc4ccccn4)[C@H]3C2)n1 was tested, and the “bacterial growth OD600” value (polymyxin B 0.75 µg/mL) was 0.884.
COc1cccc(-c2cccc(NC(=O)C3CCN(Cc4ccc(CO)o4)CC3)c2)c1 was tested, and the “bacterial growth OD600” value (polymyxin B 1 µg/mL) was 0.88.
COCCC(=O)NC1CC(=O)N(CCc2cccc(Cl)c2)C1 (stereo unspecified) was tested, and the “bacterial growth OD600” value (polymyxin B 1 µg/mL) was 0.908.
With O=C(CC(c1ccccc1)c1cccc(Cl)c1)NCCc1c[nH]cn1 (stereo unspecified) the “bacterial growth OD600” value (polymyxin B 0.75 µg/mL) was 0.551.
Cc1nc(C)c(CN2CCC(C3CCN(c4ncccn4)CC3)C2)nc1C (stereo unspecified) was tested, and the “bacterial growth OD600” value (polymyxin B 0.75 µg/mL) was 0.869.
For COCc1ccc(C(=O)Nc2ccc(-c3nc(CNC(=O)c4cccc5nccnc45)c(C)o3)cc2)o1, the “bacterial growth OD600” value (polymyxin B 0.75 µg/mL) was 0.753.
CN(Cc1nc(-c2ccc3c(c2)OCO3)no1)C1CCCc2ccccc21 (stereo unspecified) was tested, and the “bacterial growth OD600” value (polymyxin B 1 µg/mL) was 0.467.
In the case of CCN(Cc1nccn1C)C(=O)c1ccc(N2CCCC(O)C2)nc1 (stereo unspecified), the “bacterial growth OD600” value (polymyxin B 0.75 µg/mL) is reported as 0.83.
With O=C1OCCN1CCNc1nncc(-c2cccc3ccccc23)n1 the “bacterial growth OD600” value (polymyxin B 0.75 µg/mL) was 0.696.
O=C(C1CCC1)N1CCOc2c(cc(-c3cccnc3)cc2OCCc2cccs2)C1 was tested, and the “bacterial growth OD600” value (polymyxin B 0.75 µg/mL) was 0.795.
With CC(=O)N1CCCN(C(=O)CC2(c3ccccc3)CC(=O)N(CCCOc3cccnc3)C2=O)CC1 (stereo unspecified) the “bacterial growth OD600” value (polymyxin B 0.75 µg/mL) was 0.904.
For O=C(CCCc1ccccc1)Nc1cccc(N2CCC(NCCN3CCOCC3)CC2)c1, the “bacterial growth OD600” value (polymyxin B 0.75 µg/mL) was 0.757.
For Cc1c[nH]c(CN(C)C(=O)c2cccc(OC3CCN(S(=O)(=O)N(C)C)CC3)c2)n1, the “bacterial growth OD600” value (polymyxin B 1 µg/mL) was 1.03.
For CC(=O)Nc1cc(C(=O)N2CCN(Cc3ncccc3C)CC2)c2c(c1)nc(C)n2Cc1ccccc1, the “bacterial growth OD600” value (polymyxin B 0.75 µg/mL) was 0.838.
With CCOC(=O)C1(CCOc2ccccc2)CCCN(CC)C1 (stereo unspecified) the “bacterial growth OD600” value (polymyxin B 1 µg/mL) was 1.08.
CCOC(=O)C1(Cc2cccc(OC)c2)CCCN(Cc2cccc3nonc23)C1 (stereo unspecified) was tested, and the “bacterial growth OD600” value (polymyxin B 1 µg/mL) was 0.848.
In the case of O=C(NCC1CCCN(C2CCOCC2)C1)c1ccc(-c2ccccc2)cc1 (stereo unspecified), the “bacterial growth OD600” value (polymyxin B 1 µg/mL) is reported as 0.922.
For COc1ccccc1Oc1ncccc1CNC(=O)c1cccnc1OC, the “bacterial growth OD600” value (polymyxin B 1 µg/mL) was 0.866.
With CCN1CCN(C2(C(=O)N(C)Cc3nc(C)c[nH]3)Cc3ccccc3C2)CC1 the “bacterial growth OD600” value (polymyxin B 0.75 µg/mL) was 0.88.
O=C(NCc1ccccn1)c1cccc(OC2CCN(C(=O)c3ccoc3)CC2)c1 was tested, and the “bacterial growth OD600” value (polymyxin B 1 µg/mL) was 0.845.
COc1ccc(CN2C[C@@H]3C[C@@H](c4ccc(F)cc4)N4CCC[C@@]34C2=O)cc1 was tested, and the “bacterial growth OD600” value (polymyxin B 0.75 µg/mL) was 0.772.
COc1ccc(CNCc2cccnc2Oc2ccc(C)nc2)c(F)c1 was tested, and the “bacterial growth OD600” value (polymyxin B 1 µg/mL) was 1.1.
COc1ccc(C(=O)N2CCc3onc(-c4ccc(Cl)cc4)c3C2)cc1 was tested, and the “bacterial growth OD600” value (polymyxin B 0.75 µg/mL) was 0.42.
In the case of COc1ccc(-c2noc(-c3ccc(NCCc4cscn4)nc3)n2)cc1, the “bacterial growth OD600” value (polymyxin B 1 µg/mL) is reported as 0.887.
CCC1CN(CCNC(=O)CC2CCCC2)Cc2cc(OC)ccc2O1 (stereo unspecified) was tested, and the “bacterial growth OD600” value (polymyxin B 0.75 µg/mL) was 0.89.
